Experimental data as given in PubChem BioAssay AID493014 (National Center for Advancing Translational Sciences (NCATS), 2011).
The other results are listed elsewhere or left out. The main result of the screen is listed elsewhere. These columns were measured beside it and carry no call. Compounds called inactive in the main read-out are mostly missing here. The note in brackets gives the kind of curve behind each potency; many fits are weak.

Assay: qHTS Assay to Find Inhibitors of Chronic Active B-Cell Receptor Signaling
Settings: ABC-DLBCL IkBa-CBG/CBR reporter, luminescence ratio (green luciferase fused to IkBa over red control in TMD8 lymphoma cells), 4 h
Outline: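 TMD8 ABC-DLBCL cells carrying doxycycline-inducible green luciferase fused to IkappaBalpha plus unfused red luciferase were exposed to compounds (up to 46 uM) for 4 hrs at 37C. Activity came from the overlap-corrected green/red luminescence ratio.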

[1] = measured here: CBR red luminescence, cell number
[2] = measured here: IkBa-CBG green luminescence

Row | SMILES | AC50 [1] | AC50 [2]
1 | Cc1c(Cl)c(C(=O)NNC(=S)NCc2ccco2)nn1C | 16.4 µM [falling, single point] | –
2 | CN1/C(=C\C(=S)NC(=O)c2cccc(Br)c2)C(C)(C)c2ccccc21 | 6.51 µM [rising, single point] | –
3 | CN1c2ccsc2C(O)=C(C(=O)Nc2ccccc2)S1(=O)=O | 18.4 µM [falling, partial curve] | –
4 | Cc1ccccc1NC(=S)NNC(=O)c1ccco1 | 10 µM [falling, partial curve] | –
5 | Cc1c(CC(=O)NCCC(C)C)c(=O)oc2cc3c(cc12)CCC(C)(C)O3 | 3.55 µM [rising, single point] | –
6 | COc1cccc(Cn2cnc3c(NS(=O)(=O)c4ccc(Cl)cc4Cl)c(C)c(C)cc32)c1 | 5.01 µM [falling, partial curve, poor fit] | –
7 | CN(C)S(=O)(=O)c1ccc(C(=O)N2CCN(C(=O)C3CCCO3)CC2)cc1 (stereo not drawn) | 3.66 µM [rising, partial curve, poor fit] | –
8 | O=C(NC(CO)Cc1ccccc1)c1ccccc1 (stereo not drawn) | 29.1 µM [falling, single point] | –
9 | COc1ccc(C(=O)OCC(=O)N2CCCCC2)cc1[N+](=O)[O-] | 10 µM [falling, partial curve] | –
10 | CC(C)CNC(=O)COC(=O)C1c2ccccc2Oc2ccccc21 | 3.16 µM [rising, partial curve] | 3.16 µM [falling, single point]
11 | Cc1ccc2nc(N(CCCN(C)C)C(=O)c3ccco3)sc2c1 | 31.6 µM [falling, single point] | –
12 | CN(C)c1ccc(CNC(=O)C2CCN(S(=O)(=O)c3ccc4c(c3)CCCC(=O)N4)CC2)cc1 | 5.62 µM [rising, full curve, poor fit] | –
13 | COc1ccccc1/C=C/c1nc2ccc(OC(C)=O)cc2c(=O)o1 | 0.631 µM [falling, full curve, poor fit] | –
14 | CC(C)(C)C(=O)Nc1ccc(C(=O)CN2C(=O)NC3(CCOc4ccccc43)C2=O)cc1 (stereo not drawn) | 11.6 µM [rising, partial curve, poor fit] | –
15 | O=C1C(=O)c2ccccc2C(O)=C1CCCCl | 22.4 µM [falling, single point] | –
16 | O/N=C1/C2C3CC4C5C3C1C5C1(OCCO1)C42 (stereo not drawn) | 35.5 µM [falling, single point] | –
17 | O=c1[nH]n2c(=O)c3c([nH]c2c1N=Nc1cccc(Cl)c1)CCC3 | 16.4 µM [falling, single point] | –
18 | C=CC(O)(C#CCN(CC)CC)c1ccccc1 (stereo not drawn) | 2.31 µM [rising, single point] | –
19 | C=CCc1cc(Cl)ccc1OCCOCCNC(C)(C)C | 12.6 µM [falling, partial curve, poor fit] | –
20 | CCC(C)NC(=O)c1ccc(C2SCC(=O)N2Cc2ccccc2)cc1 (stereo not drawn) | – | 12.6 µM [rising, partial curve, poor fit]
21 | O=C(CSc1nc2ncccc2[nH]1)c1ccc2c(c1)OCO2 | 14.1 µM [falling, single point] | –

Row | SMILES | AC50 [1] | AC50 [2]
22 | COc1ccc(C2CC(C(F)(F)F)n3nc(C(=O)NCc4c(C)nn(C)c4C)c(Cl)c3N2)cc1 (stereo not drawn) | 29.1 µM [falling, single point] | –
23 | O=C(Cn1cnc2ccccc21)Nc1ccc(F)c(F)c1 | 12.6 µM [falling, partial curve] | –
24 | O=C(/C=C/c1ccc[nH]1)c1ccc(F)cc1 | 35.5 µM [falling, single point] | –
25 | COc1ccccc1NC(=O)CCc1nc2sc3c(c2c(=O)[nH]1)CCCC3 | 16.4 µM [falling, single point] | –
26 | CCN(CC)C(=O)c1cn(CC)c(=O)c2cc(OC)c(OC)cc12 | 0.517 µM [rising, full curve, poor fit] | –
27 | COc1cccc(-c2nc(CS(=O)(=O)CC(=O)NCc3ccc4c(c3)OCO4)c(C)o2)c1 | 20 µM [falling, partial curve, poor fit] | –
28 | N#Cc1ccc(/C=C/C(=O)c2ccc3c(c2)OCO3)cc1 | 6.31 µM [falling, full curve, poor fit] | –
29 | COc1ccc2c(CC(=O)Nc3ccc(OC)c(S(=O)(=O)N4CCOCC4)c3)coc2c1 | 16.4 µM [rising, partial curve, poor fit] | –
30 | CC1CCC/C(=N\Nc2ccc(Cl)c(C(=O)O)c2)C1 (stereo not drawn) | 2.06 µM [falling, full curve] | –
31 | CC1CCCCN1S(=O)(=O)c1ccccc1[N+](=O)[O-] (stereo not drawn) | 18.4 µM [falling, single point] | 29.1 µM [rising, partial curve, poor fit]
32 | O=C(Nc1cccnc1Cl)C1=NN(c2ccccc2)C(=O)CC1 | 3.55 µM [rising, partial curve, poor fit] | –
33 | C/C(=N\NC(=O)c1ccc2c(c1)OCO2)c1ccc(C(=O)O)s1 | 2.51 µM [falling, full curve] | –
34 | Cn1cc(CN2CCC(O)CC2)c(-c2ccc(Oc3ccccc3)cc2)n1 | 0.178 µM [rising, partial curve, poor fit] | –
35 | O=C(CSc1ncnc2ccccc12)NCCc1ccccc1 | 17.8 µM [rising, partial curve, poor fit] | –
36 | N#Cc1c(NC(=S)NC(=O)c2ccccc2)sc2c1CCC2 | 0.517 µM [rising, full curve, poor fit] | –
37 | CCn1nc(C)c(CNC(=O)c2cc(COc3ccccc3SC)on2)c1C | 35.5 µM [falling, single point] | –
38 | O=C(Nc1ccccc1C(F)(F)F)c1cc(-c2ccccc2O)on1 | 0.058 µM [falling, full curve, poor fit] | –
39 | COc1ccc(CCNC(=O)c2cc(S(=O)(=O)N3CCC4(CC3)OCCO4)ccc2F)cc1OC | 12.6 µM [rising, single point] | –
40 | CS(=O)(=O)c1ccc2nc(NC(=O)CN3CCCCCC3)sc2c1 | 10 µM [rising, partial curve, poor fit] | –
41 | Cc1ccc(C)c(N2C(=O)N(Cc3ccccc3C)c3ccccc3S2(=O)=O)c1 | 7.08 µM [falling, full curve, poor fit] | –

Reformatted: 2 of the compounds above
Row	SMILES	AC50 [1]	AC50 [2]
34	Cn1cc(CN2CCC(O)CC2)c(-c2ccc(Oc3ccccc3)cc2)n1	0.178 µM [rising, partial curve, poor fit]	–
35	O=C(CSc1ncnc2ccccc12)NCCc1ccccc1	17.8 µM [rising, partial curve, poor fit]	–
